Assay results as given in US20250034271A1.
No constants are given. Whether binding was seen depends on the method and setting. Some results given as binding are weak or reduced against the parent protein; the word gives no strength. Blank lines part the entries; values can stand above or below the binder they belong to.

The chains behind the UniProt entries cited, without tags or fusion partners. Where a name states a change or a piece, a line headed by the entry shows the natural chain unless it says otherwise.
UniProt P25942: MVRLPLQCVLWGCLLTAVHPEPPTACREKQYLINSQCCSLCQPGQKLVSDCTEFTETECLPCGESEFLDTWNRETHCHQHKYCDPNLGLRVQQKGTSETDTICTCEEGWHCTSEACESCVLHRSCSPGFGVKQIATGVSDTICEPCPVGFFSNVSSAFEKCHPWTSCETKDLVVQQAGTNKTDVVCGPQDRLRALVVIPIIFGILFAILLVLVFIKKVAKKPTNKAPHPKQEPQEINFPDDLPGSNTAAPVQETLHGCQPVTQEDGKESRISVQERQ

Target: Histidine-tagged human CD40 protein (hCD40-His) (human) (UniProt P25942)
Test: SPR (Biacore T200), antibody captured on Protein A chip, hCD40-His injected at 0.78125, 3.125, 12.5, 50, 200, 800nM

binding: binds
B1: 6A7-mHvKv-IgG4 (antibody, V domains shown)
VH: QVQLQQPGAELVKPGASVKLSCKASGYTFISYYIYWVKQRPGQGLEWIGGINPRNGGTNFNEKFKSKATLTVDKSSSTAYMQLSSLTSEDSAVYYCTRHGNGVYWGQGTTLTVSS
VL: DVVMTQTPLSLPVSLGDQASISCRSSQSLLHSNGNTYLHWYLQKPGQSPNHLIYQVSNRFSGVPDRFSGSGSGTDFTLKISRVEAEDLGVYFCSQTTHVPWTFGGGTKLEIK

binding: binds
B2: 6A7-H1K1-IgG4 (antibody, V domains shown)
VH: QVQLVQSGAEVKKPGASVKVSCKASGYTFISYYIYWVRQAPGQGLEWMGGINPRNGGTNFNEKFKSRVTLTVDTSISTAYMELSRLRSEDTAVYYCARHGNGVYWGQGTTVTVSS
VL: DVVMTQSPLSLPVTLGQPASISCRSSQSLLHSNGNTYLHWFQQRPGQSPRHLIYQVSNRFSGVPDRFSGSGSGTDFTLKISRVEAEDVGVYYCSQTTHVPWTFGGGTKVEIK
